Test results from the supplement of paper PMC7666118.
Some of the results follow.

The chains behind the UniProt entries cited, without tags or fusion partners. Where a name states a change or a piece, a line headed by the entry shows the natural chain unless it says otherwise.
UniProt P31942: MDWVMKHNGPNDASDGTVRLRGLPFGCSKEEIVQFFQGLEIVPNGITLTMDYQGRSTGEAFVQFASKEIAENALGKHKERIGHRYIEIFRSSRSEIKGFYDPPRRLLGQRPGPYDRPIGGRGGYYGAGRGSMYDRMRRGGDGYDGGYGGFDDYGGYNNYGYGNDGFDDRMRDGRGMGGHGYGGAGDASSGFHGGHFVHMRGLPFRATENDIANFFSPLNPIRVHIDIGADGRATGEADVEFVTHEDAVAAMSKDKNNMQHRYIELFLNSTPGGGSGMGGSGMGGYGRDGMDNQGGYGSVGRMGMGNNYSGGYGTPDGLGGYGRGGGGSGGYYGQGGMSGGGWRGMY
UniProt P13598: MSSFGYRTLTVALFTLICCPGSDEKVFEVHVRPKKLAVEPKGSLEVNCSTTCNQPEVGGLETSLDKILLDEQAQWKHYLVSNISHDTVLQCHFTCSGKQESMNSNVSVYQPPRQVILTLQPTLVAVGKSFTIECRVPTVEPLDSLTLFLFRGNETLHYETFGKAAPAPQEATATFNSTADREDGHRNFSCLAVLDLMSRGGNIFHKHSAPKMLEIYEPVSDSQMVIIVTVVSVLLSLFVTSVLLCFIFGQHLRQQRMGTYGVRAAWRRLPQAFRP
UniProt Q13155: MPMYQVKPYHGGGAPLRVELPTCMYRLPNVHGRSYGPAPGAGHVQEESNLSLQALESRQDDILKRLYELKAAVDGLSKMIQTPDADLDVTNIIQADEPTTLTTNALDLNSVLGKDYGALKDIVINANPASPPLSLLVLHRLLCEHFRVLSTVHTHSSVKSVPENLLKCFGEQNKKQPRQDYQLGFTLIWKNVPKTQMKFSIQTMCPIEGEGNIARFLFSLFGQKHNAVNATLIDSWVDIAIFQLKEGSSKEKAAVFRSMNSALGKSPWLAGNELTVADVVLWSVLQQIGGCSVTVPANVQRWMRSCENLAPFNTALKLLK
UniProt Q14667: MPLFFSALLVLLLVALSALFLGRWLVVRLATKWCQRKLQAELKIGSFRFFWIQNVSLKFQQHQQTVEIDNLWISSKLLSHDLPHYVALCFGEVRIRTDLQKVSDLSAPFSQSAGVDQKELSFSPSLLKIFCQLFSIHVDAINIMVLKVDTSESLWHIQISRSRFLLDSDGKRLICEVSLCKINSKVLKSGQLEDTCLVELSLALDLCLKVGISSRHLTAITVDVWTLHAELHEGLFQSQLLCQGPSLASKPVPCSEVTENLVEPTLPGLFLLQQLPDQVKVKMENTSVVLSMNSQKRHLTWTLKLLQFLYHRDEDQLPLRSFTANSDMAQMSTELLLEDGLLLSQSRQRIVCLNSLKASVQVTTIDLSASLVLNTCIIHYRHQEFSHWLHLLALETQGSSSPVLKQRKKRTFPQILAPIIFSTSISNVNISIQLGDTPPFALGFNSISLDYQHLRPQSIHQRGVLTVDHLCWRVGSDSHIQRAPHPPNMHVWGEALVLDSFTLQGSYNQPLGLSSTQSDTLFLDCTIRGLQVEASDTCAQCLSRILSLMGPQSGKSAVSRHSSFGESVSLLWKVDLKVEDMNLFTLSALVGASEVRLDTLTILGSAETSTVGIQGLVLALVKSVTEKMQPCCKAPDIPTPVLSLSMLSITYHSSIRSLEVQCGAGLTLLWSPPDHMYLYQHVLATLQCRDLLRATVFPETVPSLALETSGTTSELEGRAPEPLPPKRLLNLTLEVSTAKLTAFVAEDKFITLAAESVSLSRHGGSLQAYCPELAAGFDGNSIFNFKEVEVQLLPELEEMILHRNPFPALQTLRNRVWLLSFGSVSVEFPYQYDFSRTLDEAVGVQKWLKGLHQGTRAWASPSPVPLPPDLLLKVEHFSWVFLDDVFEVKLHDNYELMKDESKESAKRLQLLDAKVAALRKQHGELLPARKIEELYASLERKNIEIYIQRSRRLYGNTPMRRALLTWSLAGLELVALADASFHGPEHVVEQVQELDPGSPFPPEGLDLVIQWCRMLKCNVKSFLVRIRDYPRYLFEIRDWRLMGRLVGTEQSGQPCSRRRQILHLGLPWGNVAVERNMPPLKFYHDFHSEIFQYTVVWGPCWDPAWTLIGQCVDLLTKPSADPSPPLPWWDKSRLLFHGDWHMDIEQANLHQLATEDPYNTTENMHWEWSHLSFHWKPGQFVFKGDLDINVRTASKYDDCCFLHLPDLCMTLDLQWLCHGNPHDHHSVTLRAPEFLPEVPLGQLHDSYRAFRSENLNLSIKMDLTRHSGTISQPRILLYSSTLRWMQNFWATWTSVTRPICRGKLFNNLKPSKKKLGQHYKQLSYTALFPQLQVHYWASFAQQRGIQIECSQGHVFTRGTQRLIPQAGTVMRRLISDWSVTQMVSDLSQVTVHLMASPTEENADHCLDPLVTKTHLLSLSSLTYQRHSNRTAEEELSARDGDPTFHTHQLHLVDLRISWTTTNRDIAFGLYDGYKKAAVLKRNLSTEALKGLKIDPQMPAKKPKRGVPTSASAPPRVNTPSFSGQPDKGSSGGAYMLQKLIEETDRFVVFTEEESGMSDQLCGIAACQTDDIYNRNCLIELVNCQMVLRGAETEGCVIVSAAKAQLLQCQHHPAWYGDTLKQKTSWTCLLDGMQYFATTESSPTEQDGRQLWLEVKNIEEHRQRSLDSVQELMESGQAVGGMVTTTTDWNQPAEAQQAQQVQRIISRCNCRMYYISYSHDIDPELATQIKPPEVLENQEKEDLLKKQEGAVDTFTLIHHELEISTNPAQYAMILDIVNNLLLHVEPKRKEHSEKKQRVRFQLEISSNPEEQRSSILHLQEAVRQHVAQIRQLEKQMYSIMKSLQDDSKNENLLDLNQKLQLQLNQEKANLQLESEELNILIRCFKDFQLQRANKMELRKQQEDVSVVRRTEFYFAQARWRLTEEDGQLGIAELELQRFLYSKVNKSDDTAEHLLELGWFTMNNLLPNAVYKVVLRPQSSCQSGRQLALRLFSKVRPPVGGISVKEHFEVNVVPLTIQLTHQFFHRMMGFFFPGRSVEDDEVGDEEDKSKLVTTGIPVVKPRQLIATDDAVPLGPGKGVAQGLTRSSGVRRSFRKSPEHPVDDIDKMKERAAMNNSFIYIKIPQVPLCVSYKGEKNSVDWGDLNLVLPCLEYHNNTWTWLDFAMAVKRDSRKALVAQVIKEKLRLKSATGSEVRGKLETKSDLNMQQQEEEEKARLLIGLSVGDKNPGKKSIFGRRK
UniProt Q9UK53: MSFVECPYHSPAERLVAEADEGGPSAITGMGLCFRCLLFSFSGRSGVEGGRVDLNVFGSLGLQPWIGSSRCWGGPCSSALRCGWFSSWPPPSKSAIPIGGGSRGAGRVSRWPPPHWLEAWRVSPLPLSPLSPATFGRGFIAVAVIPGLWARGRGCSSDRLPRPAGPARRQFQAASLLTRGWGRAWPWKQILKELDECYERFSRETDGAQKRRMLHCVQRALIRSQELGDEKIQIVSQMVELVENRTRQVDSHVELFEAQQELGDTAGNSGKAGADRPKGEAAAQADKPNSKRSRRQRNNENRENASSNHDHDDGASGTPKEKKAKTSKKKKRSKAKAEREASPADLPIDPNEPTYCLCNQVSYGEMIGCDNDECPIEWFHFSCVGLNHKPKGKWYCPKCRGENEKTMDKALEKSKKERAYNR
UniProt Q96A47: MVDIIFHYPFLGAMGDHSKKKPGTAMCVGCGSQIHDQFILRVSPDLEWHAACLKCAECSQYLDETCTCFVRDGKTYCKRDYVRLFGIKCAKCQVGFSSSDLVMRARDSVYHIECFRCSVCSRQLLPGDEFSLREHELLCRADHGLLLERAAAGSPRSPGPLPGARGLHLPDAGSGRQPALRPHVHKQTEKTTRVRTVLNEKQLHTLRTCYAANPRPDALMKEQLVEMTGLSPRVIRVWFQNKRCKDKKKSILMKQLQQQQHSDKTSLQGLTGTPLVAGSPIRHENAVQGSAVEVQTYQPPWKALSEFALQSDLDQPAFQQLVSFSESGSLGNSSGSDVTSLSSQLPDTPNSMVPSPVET
UniProt P24390: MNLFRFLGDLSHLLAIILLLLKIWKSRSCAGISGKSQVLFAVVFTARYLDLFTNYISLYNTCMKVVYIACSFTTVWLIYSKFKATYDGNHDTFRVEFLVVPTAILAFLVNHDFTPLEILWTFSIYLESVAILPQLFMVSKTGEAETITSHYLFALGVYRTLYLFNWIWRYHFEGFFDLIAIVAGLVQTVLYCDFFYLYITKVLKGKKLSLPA
UniProt Q06136: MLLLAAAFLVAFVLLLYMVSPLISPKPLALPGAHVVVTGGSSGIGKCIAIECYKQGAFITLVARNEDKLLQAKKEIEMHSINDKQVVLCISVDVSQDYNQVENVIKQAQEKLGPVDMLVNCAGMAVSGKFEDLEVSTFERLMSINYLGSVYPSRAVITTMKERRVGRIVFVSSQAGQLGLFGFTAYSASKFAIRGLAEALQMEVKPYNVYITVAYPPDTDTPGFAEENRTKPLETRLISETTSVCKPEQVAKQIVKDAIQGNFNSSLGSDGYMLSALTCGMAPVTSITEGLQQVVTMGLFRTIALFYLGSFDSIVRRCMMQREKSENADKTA
UniProt P46940, whole entry: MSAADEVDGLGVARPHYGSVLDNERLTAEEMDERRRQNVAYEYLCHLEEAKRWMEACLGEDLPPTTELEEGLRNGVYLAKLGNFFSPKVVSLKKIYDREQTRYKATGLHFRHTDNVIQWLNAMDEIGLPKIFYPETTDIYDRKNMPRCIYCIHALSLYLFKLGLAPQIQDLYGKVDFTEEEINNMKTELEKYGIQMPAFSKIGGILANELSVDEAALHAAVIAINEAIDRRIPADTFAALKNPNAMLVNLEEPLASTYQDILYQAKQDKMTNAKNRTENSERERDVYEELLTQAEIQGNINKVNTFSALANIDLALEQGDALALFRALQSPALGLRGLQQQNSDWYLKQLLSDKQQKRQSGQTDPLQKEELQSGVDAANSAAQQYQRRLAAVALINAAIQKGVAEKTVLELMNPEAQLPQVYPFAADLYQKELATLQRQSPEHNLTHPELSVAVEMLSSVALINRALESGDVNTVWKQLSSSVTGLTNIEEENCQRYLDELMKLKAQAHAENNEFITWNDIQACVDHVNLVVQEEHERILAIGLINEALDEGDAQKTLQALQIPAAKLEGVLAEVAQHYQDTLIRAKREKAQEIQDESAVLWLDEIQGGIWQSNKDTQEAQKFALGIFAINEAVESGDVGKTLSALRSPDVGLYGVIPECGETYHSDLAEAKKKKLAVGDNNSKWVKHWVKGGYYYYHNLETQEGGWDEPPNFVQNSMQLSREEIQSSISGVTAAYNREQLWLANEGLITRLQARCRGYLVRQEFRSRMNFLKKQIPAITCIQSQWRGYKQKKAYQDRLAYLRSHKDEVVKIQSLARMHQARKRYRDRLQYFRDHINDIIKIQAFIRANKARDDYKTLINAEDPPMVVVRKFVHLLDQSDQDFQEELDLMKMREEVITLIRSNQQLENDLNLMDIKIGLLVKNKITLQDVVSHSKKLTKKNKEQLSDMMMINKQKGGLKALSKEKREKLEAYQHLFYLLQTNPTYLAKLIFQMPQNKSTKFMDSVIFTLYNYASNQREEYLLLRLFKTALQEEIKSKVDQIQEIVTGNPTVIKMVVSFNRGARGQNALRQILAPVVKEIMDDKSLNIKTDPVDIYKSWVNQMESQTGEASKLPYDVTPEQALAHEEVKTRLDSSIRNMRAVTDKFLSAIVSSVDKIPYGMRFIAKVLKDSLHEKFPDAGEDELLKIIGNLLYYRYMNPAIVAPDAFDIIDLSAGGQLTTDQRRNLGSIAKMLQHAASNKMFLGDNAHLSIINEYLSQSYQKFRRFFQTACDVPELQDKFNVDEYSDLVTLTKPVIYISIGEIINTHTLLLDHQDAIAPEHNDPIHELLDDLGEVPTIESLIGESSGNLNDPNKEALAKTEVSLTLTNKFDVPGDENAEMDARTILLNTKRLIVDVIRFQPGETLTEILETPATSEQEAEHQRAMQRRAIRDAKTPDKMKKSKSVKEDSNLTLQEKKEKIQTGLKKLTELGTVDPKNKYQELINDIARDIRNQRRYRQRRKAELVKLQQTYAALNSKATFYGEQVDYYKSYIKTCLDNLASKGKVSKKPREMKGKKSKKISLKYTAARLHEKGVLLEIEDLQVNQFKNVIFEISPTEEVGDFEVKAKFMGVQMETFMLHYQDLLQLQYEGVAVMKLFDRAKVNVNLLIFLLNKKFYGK
UniProt O75874, whole entry: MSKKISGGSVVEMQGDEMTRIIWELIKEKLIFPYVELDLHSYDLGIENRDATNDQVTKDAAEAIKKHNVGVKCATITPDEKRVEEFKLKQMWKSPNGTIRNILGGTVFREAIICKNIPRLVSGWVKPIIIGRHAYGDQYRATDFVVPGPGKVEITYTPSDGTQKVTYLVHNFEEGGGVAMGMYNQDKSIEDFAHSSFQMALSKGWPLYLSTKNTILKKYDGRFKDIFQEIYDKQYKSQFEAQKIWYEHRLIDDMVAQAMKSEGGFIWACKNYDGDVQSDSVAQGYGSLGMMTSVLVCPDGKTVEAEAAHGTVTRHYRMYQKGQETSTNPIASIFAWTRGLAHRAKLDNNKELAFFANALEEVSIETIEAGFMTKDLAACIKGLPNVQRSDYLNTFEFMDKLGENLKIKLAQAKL

compound: COc1ccc(Cn2ccc3ccc(C(=O)NO)cc32)cc1; experiment: dose-dependent thermal stabilisation call (2D-TPP, DLPTP, 10% FDR) (binary (1 = stabilised)); higher = stabilised by the compound; details: system: HL-60 intact cells; concentration range 0.04-10 µM

Target	dose-dependent thermal stabilisation call
IER3IP1 (UniProt Q9Y5U9)	inactive: 0
HNRNPH3 (UniProt P31942)	inactive: 0
KHSRP (UniProt Q92945)	inactive: 0
ICAM2 (UniProt P13598)	inactive: 0
HPCAL1 (UniProt P37235)	inactive: 0
KCMF1 (UniProt Q9P0J7)	inactive: 0
IL17RA (UniProt Q96F46)	inactive: 0
JTV1 (UniProt Q13155)	inactive: 0
KIAA0090 (UniProt Q8N766)	inactive: 0
HSH2D (UniProt Q96JZ2)	inactive: 0
IRAK1 (UniProt P51617)	inactive: 0
ILKAP (UniProt Q9H0C8)	inactive: 0
IPO7 (UniProt O95373)	inactive: 0
IL18R1 (UniProt Q13478)	inactive: 0
ITSN2 (UniProt Q9NZM3)	inactive: 0
KIAA0100 (UniProt Q14667)	inactive: 0
HSPA2 (UniProt P54652)	inactive: 0
IVD (UniProt P26440)	inactive: 0
ING1 (UniProt Q9UK53)	inactive: 0

Exported with bars between the fields: entries from further up.
Target | dose-dependent thermal stabilisation call
HSPA2 (UniProt P54652) | inactive: 0
IVD (UniProt P26440) | inactive: 0

(continued)

Target	dose-dependent thermal stabilisation call
ISL2 (UniProt Q96A47)	inactive: 0
INTS8 (UniProt Q75QN2)	inactive: 0
HPS4 (UniProt Q9NQG7)	inactive: 0
KDELR1 (UniProt P24390)	inactive: 0
KDSR (UniProt Q06136)	inactive: 0
IQGAP1 (UniProt P46940)	inactive: 0
HMGCL (UniProt P35914)	inactive: 0
IMPA2 (UniProt O14732)	inactive: 0
IGF2BP3 (UniProt O00425)	inactive: 0
JAG1 (UniProt P78504)	inactive: 0
KIAA0528 (UniProt Q86YS7)	inactive: 0
ITGB2 (UniProt P05107)	inactive: 0
HSDL2 (UniProt Q6YN16)	inactive: 0
IKBKB (UniProt O14920)	inactive: 0
IFNAR1 (UniProt P17181)	inactive: 0
HYOU1 (UniProt Q9Y4L1)	inactive: 0
IDH1 (UniProt O75874)	inactive: 0
JMJD6 (UniProt Q6NYC1)	inactive: 0
